According to the supplement of paper PMC7666118:
The other results are listed elsewhere or left out.

Sequences of proteins named here, by UniProt entry; tags and fusion partners are left off. A change or cut given only in a name is not applied to a line headed by its entry.
UniProt Q7Z6I8: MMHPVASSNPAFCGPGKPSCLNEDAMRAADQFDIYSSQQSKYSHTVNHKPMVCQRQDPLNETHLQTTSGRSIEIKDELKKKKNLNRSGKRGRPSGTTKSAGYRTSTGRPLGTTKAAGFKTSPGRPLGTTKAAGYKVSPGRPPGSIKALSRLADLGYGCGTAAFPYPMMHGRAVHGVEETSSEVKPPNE
UniProt Q5JPI3: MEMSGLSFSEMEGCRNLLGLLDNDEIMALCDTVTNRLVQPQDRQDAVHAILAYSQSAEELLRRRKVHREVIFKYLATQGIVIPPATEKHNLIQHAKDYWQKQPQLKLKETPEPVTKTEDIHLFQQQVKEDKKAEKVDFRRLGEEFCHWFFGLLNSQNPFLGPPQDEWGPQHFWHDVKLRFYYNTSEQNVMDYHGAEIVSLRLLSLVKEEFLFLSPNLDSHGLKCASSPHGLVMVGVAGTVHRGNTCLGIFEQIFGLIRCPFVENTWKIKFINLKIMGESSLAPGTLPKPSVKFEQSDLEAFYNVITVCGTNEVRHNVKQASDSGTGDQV
UniProt Q9H257: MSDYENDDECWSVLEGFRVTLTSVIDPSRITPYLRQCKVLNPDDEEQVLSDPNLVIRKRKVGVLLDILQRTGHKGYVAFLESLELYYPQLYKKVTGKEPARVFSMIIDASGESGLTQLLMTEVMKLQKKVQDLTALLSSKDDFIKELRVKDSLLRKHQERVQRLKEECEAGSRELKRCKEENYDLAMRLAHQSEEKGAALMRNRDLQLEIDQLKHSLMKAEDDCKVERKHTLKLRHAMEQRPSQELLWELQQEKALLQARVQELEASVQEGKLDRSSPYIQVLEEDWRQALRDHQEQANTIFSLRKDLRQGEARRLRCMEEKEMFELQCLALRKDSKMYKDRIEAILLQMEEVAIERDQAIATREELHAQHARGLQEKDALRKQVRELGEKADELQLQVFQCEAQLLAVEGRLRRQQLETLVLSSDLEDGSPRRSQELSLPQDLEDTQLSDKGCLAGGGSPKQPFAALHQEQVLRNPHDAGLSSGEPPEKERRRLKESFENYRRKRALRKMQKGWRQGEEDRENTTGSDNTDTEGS
UniProt Q5T280: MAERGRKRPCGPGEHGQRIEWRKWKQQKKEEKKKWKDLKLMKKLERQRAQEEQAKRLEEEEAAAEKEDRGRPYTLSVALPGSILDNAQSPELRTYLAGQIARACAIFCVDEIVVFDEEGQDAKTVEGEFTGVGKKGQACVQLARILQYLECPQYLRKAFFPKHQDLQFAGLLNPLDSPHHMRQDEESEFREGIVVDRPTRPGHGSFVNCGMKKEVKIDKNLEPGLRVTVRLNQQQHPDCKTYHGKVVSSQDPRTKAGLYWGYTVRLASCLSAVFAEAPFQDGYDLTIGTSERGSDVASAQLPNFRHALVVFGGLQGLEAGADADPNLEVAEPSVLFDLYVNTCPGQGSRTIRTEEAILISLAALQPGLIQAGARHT
UniProt Q9P0B6: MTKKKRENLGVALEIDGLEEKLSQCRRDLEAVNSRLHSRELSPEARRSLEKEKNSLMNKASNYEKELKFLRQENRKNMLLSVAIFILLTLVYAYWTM
UniProt O43852: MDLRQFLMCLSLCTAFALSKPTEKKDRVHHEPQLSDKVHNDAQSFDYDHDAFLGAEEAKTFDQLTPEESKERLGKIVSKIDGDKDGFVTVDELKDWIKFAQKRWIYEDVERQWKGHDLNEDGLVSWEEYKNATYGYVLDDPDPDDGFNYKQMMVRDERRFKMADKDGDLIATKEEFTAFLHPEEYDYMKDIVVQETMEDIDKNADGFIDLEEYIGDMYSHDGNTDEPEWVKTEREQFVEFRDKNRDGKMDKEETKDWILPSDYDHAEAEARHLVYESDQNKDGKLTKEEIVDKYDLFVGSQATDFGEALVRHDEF
UniProt Q16566: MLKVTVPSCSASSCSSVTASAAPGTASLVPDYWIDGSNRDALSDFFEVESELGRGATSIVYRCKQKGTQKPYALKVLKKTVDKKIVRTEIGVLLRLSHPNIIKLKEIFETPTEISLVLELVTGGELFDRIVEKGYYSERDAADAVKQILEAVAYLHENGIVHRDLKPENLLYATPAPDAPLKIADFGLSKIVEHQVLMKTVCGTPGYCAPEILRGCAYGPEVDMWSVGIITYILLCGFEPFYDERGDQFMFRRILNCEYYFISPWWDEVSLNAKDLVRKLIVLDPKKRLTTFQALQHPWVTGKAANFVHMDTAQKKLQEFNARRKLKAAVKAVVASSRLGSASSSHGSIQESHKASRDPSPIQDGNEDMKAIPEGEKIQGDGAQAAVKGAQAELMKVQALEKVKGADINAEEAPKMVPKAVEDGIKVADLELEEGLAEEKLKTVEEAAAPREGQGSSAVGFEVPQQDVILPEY
UniProt Q9BQ75: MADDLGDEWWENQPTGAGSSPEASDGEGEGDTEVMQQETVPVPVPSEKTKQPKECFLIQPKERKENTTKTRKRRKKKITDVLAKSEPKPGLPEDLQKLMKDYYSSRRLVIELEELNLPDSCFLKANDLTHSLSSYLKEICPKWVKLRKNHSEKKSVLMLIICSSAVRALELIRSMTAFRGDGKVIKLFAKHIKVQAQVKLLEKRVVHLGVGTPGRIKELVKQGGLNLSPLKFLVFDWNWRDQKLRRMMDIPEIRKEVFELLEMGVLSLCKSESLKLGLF
UniProt Q9Y6R9: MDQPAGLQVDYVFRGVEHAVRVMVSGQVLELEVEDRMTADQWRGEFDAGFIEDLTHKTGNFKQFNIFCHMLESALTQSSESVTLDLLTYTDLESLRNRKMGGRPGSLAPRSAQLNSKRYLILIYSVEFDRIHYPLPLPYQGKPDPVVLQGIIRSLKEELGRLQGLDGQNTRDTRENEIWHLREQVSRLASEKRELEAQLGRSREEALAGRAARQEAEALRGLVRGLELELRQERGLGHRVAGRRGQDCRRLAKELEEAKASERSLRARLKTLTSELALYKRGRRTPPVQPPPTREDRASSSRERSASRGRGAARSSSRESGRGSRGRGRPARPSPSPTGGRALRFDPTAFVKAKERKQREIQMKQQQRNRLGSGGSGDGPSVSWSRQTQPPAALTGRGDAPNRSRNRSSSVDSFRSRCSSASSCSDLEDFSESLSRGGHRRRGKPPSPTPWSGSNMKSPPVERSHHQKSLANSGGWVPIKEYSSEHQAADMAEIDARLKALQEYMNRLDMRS
UniProt Q9P219: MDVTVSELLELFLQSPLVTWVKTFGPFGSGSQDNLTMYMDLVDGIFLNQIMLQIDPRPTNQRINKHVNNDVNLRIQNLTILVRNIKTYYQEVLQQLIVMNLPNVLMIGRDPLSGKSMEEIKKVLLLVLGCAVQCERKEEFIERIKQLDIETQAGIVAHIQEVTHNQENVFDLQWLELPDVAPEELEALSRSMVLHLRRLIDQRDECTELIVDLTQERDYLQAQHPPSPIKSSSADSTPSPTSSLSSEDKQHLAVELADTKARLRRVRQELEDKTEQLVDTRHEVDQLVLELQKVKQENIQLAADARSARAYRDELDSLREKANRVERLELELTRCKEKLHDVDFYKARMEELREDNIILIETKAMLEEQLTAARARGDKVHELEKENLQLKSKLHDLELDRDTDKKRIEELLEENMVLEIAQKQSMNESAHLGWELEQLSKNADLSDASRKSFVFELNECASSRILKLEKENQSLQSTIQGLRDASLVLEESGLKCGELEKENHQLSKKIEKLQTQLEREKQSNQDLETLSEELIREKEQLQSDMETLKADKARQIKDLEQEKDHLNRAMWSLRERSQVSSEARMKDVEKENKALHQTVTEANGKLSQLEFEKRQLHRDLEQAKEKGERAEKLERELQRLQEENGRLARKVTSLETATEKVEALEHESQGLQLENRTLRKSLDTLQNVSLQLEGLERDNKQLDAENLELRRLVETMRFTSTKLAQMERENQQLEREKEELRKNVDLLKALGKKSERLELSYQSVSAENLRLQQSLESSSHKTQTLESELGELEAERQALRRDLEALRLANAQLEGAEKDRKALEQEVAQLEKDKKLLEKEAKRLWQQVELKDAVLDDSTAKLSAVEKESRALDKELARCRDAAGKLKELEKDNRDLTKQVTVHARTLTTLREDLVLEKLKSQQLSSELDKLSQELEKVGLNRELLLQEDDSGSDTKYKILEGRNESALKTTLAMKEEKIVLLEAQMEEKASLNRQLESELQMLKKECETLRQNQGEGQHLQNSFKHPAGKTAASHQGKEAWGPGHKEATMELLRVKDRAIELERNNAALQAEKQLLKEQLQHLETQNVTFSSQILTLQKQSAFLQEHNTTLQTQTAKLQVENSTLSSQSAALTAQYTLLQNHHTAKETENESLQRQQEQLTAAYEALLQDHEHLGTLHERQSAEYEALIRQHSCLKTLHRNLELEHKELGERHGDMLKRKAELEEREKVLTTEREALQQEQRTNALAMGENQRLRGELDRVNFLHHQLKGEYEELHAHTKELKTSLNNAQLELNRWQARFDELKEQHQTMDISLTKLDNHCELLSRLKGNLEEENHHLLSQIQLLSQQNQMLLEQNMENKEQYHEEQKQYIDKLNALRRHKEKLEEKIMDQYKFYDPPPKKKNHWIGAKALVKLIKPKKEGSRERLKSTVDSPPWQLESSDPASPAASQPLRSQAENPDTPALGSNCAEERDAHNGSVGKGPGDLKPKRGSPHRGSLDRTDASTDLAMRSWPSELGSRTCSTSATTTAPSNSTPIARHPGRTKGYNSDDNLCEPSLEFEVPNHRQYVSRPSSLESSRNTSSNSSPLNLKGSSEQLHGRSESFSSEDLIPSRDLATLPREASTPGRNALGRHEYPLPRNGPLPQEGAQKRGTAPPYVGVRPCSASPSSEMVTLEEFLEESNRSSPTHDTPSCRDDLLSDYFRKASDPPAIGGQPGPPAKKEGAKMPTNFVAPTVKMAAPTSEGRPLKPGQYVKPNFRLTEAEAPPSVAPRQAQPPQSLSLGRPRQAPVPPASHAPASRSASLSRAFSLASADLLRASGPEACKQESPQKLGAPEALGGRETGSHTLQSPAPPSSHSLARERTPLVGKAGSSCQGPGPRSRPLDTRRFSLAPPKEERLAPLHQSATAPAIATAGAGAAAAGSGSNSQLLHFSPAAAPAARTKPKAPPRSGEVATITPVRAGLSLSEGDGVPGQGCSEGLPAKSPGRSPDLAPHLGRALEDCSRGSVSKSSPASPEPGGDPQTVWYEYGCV
UniProt A5PLN9: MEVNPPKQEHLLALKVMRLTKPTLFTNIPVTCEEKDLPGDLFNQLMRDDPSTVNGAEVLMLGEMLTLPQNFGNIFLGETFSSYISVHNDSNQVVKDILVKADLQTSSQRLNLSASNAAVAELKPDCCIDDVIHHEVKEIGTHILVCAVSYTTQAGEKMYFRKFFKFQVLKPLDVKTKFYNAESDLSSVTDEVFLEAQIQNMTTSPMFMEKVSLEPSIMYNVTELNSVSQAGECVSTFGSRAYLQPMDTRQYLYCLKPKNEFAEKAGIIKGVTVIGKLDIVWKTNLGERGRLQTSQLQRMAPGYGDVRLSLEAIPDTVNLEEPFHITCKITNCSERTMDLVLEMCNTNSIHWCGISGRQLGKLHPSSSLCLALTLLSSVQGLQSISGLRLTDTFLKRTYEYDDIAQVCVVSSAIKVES
UniProt Q96NT0: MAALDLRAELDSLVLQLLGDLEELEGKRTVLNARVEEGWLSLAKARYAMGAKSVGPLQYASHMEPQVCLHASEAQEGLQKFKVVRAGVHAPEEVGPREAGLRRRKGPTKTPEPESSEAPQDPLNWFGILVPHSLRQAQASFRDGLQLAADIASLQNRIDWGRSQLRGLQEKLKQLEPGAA
UniProt Q9NSG2: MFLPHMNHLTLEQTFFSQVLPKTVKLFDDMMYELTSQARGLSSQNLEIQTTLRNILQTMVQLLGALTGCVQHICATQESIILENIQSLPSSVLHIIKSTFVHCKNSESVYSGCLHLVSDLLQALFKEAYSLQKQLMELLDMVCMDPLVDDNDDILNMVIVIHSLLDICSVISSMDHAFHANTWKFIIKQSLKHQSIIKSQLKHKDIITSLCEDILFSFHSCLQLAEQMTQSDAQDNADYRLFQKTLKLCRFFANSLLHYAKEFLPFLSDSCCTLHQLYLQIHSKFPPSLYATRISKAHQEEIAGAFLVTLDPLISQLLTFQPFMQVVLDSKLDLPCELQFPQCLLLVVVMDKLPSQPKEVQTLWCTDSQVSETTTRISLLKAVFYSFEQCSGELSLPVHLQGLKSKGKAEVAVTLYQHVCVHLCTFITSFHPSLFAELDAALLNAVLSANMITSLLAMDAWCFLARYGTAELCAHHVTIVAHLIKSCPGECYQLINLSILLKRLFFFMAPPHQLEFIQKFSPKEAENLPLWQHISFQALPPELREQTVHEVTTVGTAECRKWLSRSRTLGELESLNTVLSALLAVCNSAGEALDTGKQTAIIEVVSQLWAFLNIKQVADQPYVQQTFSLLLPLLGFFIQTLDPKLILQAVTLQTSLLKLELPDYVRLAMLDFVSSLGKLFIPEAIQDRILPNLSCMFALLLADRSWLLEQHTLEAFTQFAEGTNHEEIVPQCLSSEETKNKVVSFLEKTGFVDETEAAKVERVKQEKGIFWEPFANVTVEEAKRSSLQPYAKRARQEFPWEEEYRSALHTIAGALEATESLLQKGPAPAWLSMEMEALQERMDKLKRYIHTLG

These targets were tested with COc1ccc(Cn2ccc3cc(C)c(C(=O)NO)cc32)cc1 (assay: dose-dependent thermal stabilisation call (2D-TPP, DLPTP, 10% FDR) (binary (1 = stabilised)); higher = stabilised by the compound). Conditions: system: HL-60 intact cells; concentration range 0.04-10 µM.
Protocol: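 2D thermal proteome profiling in intact HL-60 cells treated with BRD-3811 (0, 0.04, 0.29, 2, 10 uM) for 90 min at 37 C, then heated 3 min at one of 12 temperatures (42-63.9 C). Soluble protein was quantified by TMT10 MS. The value is the DLPTP call of the paper: dose-dependent thermal stabilisation over all temperatures at 10% FDR (F-test of a dose-response against a flat model); one experiment, one call per tested protein.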

| Target | dose-dependent thermal stabilisation call |
| --- | --- |
| C1ORF128 (UniProt Q9GZP4) | inactive: 0 |
| C21ORF66 (UniProt Q9Y5B6) | inactive: 0 |
| C5ORF24 (UniProt Q7Z6I8) | inactive: 0 |
| C3ORF38 (UniProt Q5JPI3) | inactive: 0 |
| C4ORF15 (UniProt Q68CZ6) | inactive: 0 |
| CALM1 (UniProt P0DP23) | inactive: 0 |
| CCDC88B (UniProt A6NC98) | inactive: 0 |
| CARD9 (UniProt Q9H257) | inactive: 0 |
| C9ORF167 (UniProt Q9NXH8) | inactive: 0 |
| C9ORF114 (UniProt Q5T280) | inactive: 0 |
| C6ORF115 (UniProt Q9P1F3) | inactive: 0 |
| C3ORF63 (UniProt Q9UK61) | inactive: 0 |
| C7ORF28A (UniProt P86791) | inactive: 0 |
| C1ORF123 (UniProt Q9NWV4) | inactive: 0 |
| CCT4 (UniProt P50991) | inactive: 0 |
| C6ORF129 (UniProt Q9P0B6) | inactive: 0 |
| CALU (UniProt O43852) | inactive: 0 |
| CC2D1A (UniProt Q6P1N0) | inactive: 0 |
| CCDC88A (UniProt Q3V6T2) | inactive: 0 |
| C9ORF46 (UniProt Q9HBL7) | inactive: 0 |

| Target | dose-dependent thermal stabilisation call |
| --- | --- |
| C1ORF58 (UniProt Q5VW32) | inactive: 0 |
| CCDC53 (UniProt Q9Y3C0) | inactive: 0 |
| C1ORF144 (UniProt Q7Z422) | inactive: 0 |
| CBL (UniProt P22681) | inactive: 0 |
| CAMK4 (UniProt Q16566) | inactive: 0 |
| C3ORF26 (UniProt Q9BQ75) | inactive: 0 |
| CCDC101 (UniProt Q96ES7) | inactive: 0 |
| C1ORF122 (UniProt Q6ZSJ8) | inactive: 0 |
| CCDC61 (UniProt Q9Y6R9) | inactive: 0 |
| CARKD (UniProt Q8IW45) | inactive: 0 |
| CASP7 (UniProt P55210) | inactive: 0 |
| CCDC88C (UniProt Q9P219) | inactive: 0 |
| CCDC59 (UniProt Q9P031) | inactive: 0 |
| C6ORF89 (UniProt Q6UWU4) | inactive: 0 |
| C6ORF153 (UniProt Q96EU6) | inactive: 0 |
| C5ORF44 (UniProt A5PLN9) | inactive: 0 |
| C20ORF43 (UniProt Q9BY42) | inactive: 0 |
| CCDC115 (UniProt Q96NT0) | inactive: 0 |
| C1ORF112 (UniProt Q9NSG2) | inactive: 0 |
| C9ORF142 (UniProt Q9BUH6) | inactive: 0 |

A few values from the list:
Value for C3ORF26 (UniProt Q9BQ75) under dose-dependent thermal stabilisation call: inactive: 0
Value for CCDC88B (UniProt A6NC98) under dose-dependent thermal stabilisation call: inactive: 0
